Test results from patent US10160948B2, “Pluripotent embryonic-like stem cells, compositions, methods and uses thereof” (ABT HOLDING COMPANY, priority 1999, dated 2018).
For at least one compound, name, drawing or mass did not settle the structure.

Columns and labels:
pluripotent stem cells = assay: Proliferation and phenotypic responses to bioactive factors: pluripotent cells; format: cell-based
Description: Having access to mixed populations of progenitor stem cells, progenitor stem cell clones, and pluripotent stem cell clones permits one to address the influence of various bioactive factors (e.g. recombinant growth factors, purified compounds, and novel inductive factors) on the growth characteristics and phenotypic expression of these stem cells.
Cryopreserved cells are thawed and plated in MSC-1 at 5, 10, or 20×10^3 cells per well of gelatinized 24-well plates following the standard protocol. Twenty-four hours after initial plating the medium is changed to testing medium (TM) 1 to 6 (TM-1, TM-2, TM-3, TM-4, TM-5, or TM-6). TM-1 to TM-4 consist of Ultraculture (cat. no. 12-725B, lot. nos. OMO455 [TM-1], 1M1724 [TM-2], 2M0420 [TM-3], or 2M0274 [TM-4], Bio-Whittaker, Walkersville, Md.), medium (EMEM or Opti-MEM 0.01 mM β-mercaptoethanol), and 1% (v/v) antibiotic-antimycotic, pH 7.4. TM-5 consists of 98% (v/v) medium, 1% (v/v) HS, and 1% (v/v) antibiotic-antimycotic, pH 7.4. TM-6 consists of 98.5% (v/v) medium, 0.5% (v/v) HS, and 1% (v/v) antibiotic-antimycotic, pH 7.4. […] Four testing media (TM#'s 1-4), each containing various concentrations of Ultraculture, were used as. […]

Swiss-3T3 cells = assay: Dexamethasone treatment of Swiss-3T3 cells, assay of phenotypes; format: cell-based, mouse
Experimental: Frozen 3T3 cells were then thawed, cell viability was determined using 0.4% Typan Blue in PBS with a hemocytometer (Denhardt et al., 1991; Domin and Rozengurt, 1993), and the cells were plated in 24 well plates (Corning Glassworks, Corning, N.Y.), precoated with 1% gelatin at a density of 5000 cells/well. Cells were cultured in EMEM containing 10% horse serum and varying concentrations of dexamethasone (Sigma, Salom, Mo.). Four wells served as controls and received medium without dexamethasone. Four wells each received medium containing 10^−10 M, 10^−9 M, 10^−8 M, 10^−7 M, 10^−6 M dexamethasone. The medium was changed every other day and cultures were examined using phase contrast microscopy for the appearance of different phenotypes.
• Bone—The presence of calcified tissue was assayed by Von Kossa's staining of calcium phosphate as described by Humason. Briefly, the culture medium was removed, and the plates were rinsed twice with the DPBS. The cells were fixed with 0.5 ml of 10% formalin for 3-5 minutes, then rinsed four times with distilled water. One half of a milliliter of freshly prepared 2% silver nitrate solution was then added, and the cells were incubated in the dark for 10 minutes. After incubation, the silver nitrate solution was removed and the cells were rinsed five times with distilled water. Approximately 0.5 ml of distilled water was left on each well. The plate was exposed to bright light for 15 minutes against a white background to reflect light. The plates were again rinsed five times with distilled water and quickly dehydrated with 100% ethanol. The plates were made permanent with glycerin jelly. Confirmation of the presence of calcium phosphate was performed by pretreating selected cultures with 1% weight/volume [ethylene bis(oxyethylenenitrilo)]-tetraacetic acid, a specific calcium chelator, in Ca, MG-free buffer for 1 hour before incubation in the silver nitrate solution. • Muscle—The cells were stained with the MF-20 antibody to sarcomeric myosin (Hybridoma Bank, Ames Iowa) by means of a modified procedure of Young et. al., 1992b. […]

**Q.** For `C[C@@H]1C[C@H]2[C@@H]3CCC4=CC(=O)C=C[C@]4(C)[C@@]3(F)[C@@H](O)C[C@]2(C)[C@@]1(O)C(=O)CO` [Dex, dexamethasone], which “activity on pluripotent and progenitor stem cells, in words” value (pluripotent stem cells; pluripotent and progenitor cells) is on record?
**A.** depressed proliferation in pluripotent stem cells, stimulated general lineage-commitment in pluripotent cells, and acted as a weak stimulator of lineage-progression in all progenitor cells

**Q.** What about the “Phenotypic Expression, Pluripotent” value (pluripotent stem cells; presence and approximate distribution of differentiated phenotypes within the culture wells) of the same molecule?
**A.** All++

**Q.** And the “dexamethasone concentration at which endothelial cells appeared” value (Swiss-3T3 cells; 35 days)?
**A.** 10^−7 and 10^−6

**Q.** And the “dexamethasone concentration at which smooth muscle cells were most numerous” value (Swiss-3T3 cells; 35 days of treatment)?
**A.** 10^−7 and 10^−6

**Q.** And the “dexamethasone concentrations at which osteoblasts appeared” value (Swiss-3T3 cells; after 28 days in culture, small numbers)?
**A.** all concentrations
